PubChem BioAssay AID492960 (National Center for Advancing Translational Sciences (NCATS), 2010)
This list was built around the results that the source calls inconclusive (neither active nor inactive); the mix of calls is not that of the screen. Potencies beside an inconclusive call are fits to weak or partial responses and may not hold up. The source made the active and inactive calls. The call rests on the fitted dose curve; in most records, active means well fitted curve in the direction sought with a large enough effect; inconclusive means small, poorly fitted or top-dose-only effect, or effect the other way, or another doubt; inactive means no such curve, though single readings can be large or run the other way.

assay: Secondary Assay for lipid storage modulators: HepG2 cell LDSA assay for probe SAR; settings: HepG2 lipid droplet BODIPY, laser-scanning cytometry, 18-24 h; series mostly up to 46.1 µM; activity, negative = less lipid: at the top concentration
Text: NIH Molecular Libraries Probe Production Centers Network [MLPCN] NIH Chemical Genomics Center [NCGC] MLPCN Grant: 1 R03 MH085686-01 Assay Submitter (PI): Beller, Mathias; Max-Planck-Institut fur Biophysikalische Chemie NCGC Assay Overview: Storing lipids as a reservoir for energy or the anabolism of elementary metabolites is a common feature of probably all cells and is conserved from bacteria to humans. The universal cellular lipid storage organelle is the so-called lipid storage droplet (LD). Although ubiquitous, LDs share a simple structure composed of a hydrophobic core that harbors the storage lipids, which is shielded by a droplet-specific phospholipid monolayer to which proteins are attached. The current model of LD biogenesis involves an incorporation of the lipid core into the membrane leaflets of the endoplasmic reticulum (ER) followed by a subsequent budding-like maturation of a LD, which ultimately pinches off. Once released, LD volume can increase by localized lipogenesis or fusion of existing droplet. Storage lipids are re-mobilized enzymatically by lipase activity. Lipase regulation in the adipocyte is heavily studied and involves multiple components including catecholamine signaling, the LD-associated proteins Perilipin and comparative gene identification (CGI-58) and at least two lipases named hormone sensitive lipase (HSL) and adipocyte triglyceride lipase (ATGL). LD regulation outside of the adipocyte is poorly understood and only few components are known. […]
NCGC Assay Protocol Summary: The assay was performed with HepG2 cells, using an oleic acid feeding protocol similar to the S3 assay. […] Fluorescence was detected by excitation of the fluorophores with a 488-nm laser on an Acumen Explorer (TTP Lab Tech). […] Cells were detected using channel 3 (575-640 nm) with 5-um width and 100-um depth filters. The ratio of the number of objects in PMT channel 2 over the number of objects in PMT channel 3 was also calculated. […]

| Structure (SMILES) | Potency | activity, negative = less lipid |
| --- | --- | --- |
| CCOc1ccc(CCNC(=O)c2cc3sccc3n2Cc2ccc(F)cc2F)cc1OCC | inconclusive: 35.3 µM [falling, single point] | – |
| CCC/C=C/C/C=C/C=C/C=N/NN=O | active: 0.396 µM | – |
| CCOc1ccc(CCNC(=O)c2ccc(Oc3ccccc3)cc2)cc1OCC | – | inactive: 33.8% |
